Values from PubChem BioAssay AID504786 (Drosophila RNAi Screening Center, 2011).
Test: 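Positive regulators of HIF-driven reporter output in Drosophila cells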 (primary screen). System: Drosophila S2 cells with a stable HIF luciferase reporter. Reagents: long dsRNA against Drosophila genes, about 0.2 µg dsRNA per well of a 384-well plate. Timing: three days of knock-down, then 20 h of DFO before reading. Treatment: desferrioxamine (DFO) at 100 µM, an iron chelator that mimics hypoxia, for 20 h. Measurement: 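HIF reporter luminescence in cells given 100 µM DFO for 20 h, using the mouse ldh-a hypoxia-response element, scored as per-plate z-scores; higher means greater loss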. Direction: z-score: higher = stronger loss of HIF reporter signal.
The deposit covers about 21,000 reagents; below is an unselected part of those that have a named target and a result. 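Primary screen; positive scores mean lost reporter signal, so the sign may be inverted from the usual convention.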 The numbers tell different reagents against one gene apart. Not all columns of the deposit are shown.

gene knocked down | reagent no. | z-score, replicate 1 | z-score, replicate 2
CG15044 (GeneID 32834) | 1 | 0.1 | 1.1
UQCR-C2 (GeneID 39846) | 1 | 0.8 | 2.3
heix (GeneID 34961) | 1 | -0.1 | 0.4
CG5455 (GeneID 43196) | 1 | -0.4 | -0.3
CG15812 (GeneID 38379) | 1 | -0.4 | -0.6
SCCRO (GeneID 39685) | 1 | -0.3 | 0.5
Obp57c (GeneID 37311) | 1 | 0 | -0.1
CG40378 (retired record) (GeneID 3355048) | 1 | 0.4 | 0.1
mAcon1 (GeneID 44149) | 1 | -0.2 | -0.2
Exo84 (GeneID 43163) | 1 | -0.4 | 0.4
CG14153 (GeneID 39208) | 1 | -0.3 | -0.2
osa (GeneID 42130) | 1 | 0.9 | 1
Pdf (GeneID 43193) | 1 | -0.1 | -0.2
Tap42 (GeneID 326166) | 1 | -0.5 | -0.8
unc-4 (GeneID 32757) | 1 | -0.3 | -0.4
TwdlP (GeneID 43201) | 1 | 0 | 0.1
CG34331 (GeneID 33011) | 1 | -0.1 | -0.2
VhaAC39-1 (GeneID 31342) | 1 | -0.4 | -1
CG30412 (GeneID 37691) | 1 | -0.3 | -0.3
Ak3 (GeneID 41318) | 1 | -0.3 | -0.5
CG17477 (GeneID 42067) | 1 | -0.6 | -0.6
Acer (GeneID 34189) | 1 | -0.3 | -0.5
CG10353 (GeneID 32148) | 1 | 0 | 0.4
CG7149 (GeneID 34063) | 1 | -0.2 | -0.4
pdm3 (GeneID 35813) | 1 | -0.3 | -0.7
pdm3 (GeneID 35813) | 2 | -0.3 | -0.2
Tret1-1 (GeneID 36248) | 1 | 0 | -0.4
Tret1-1 (GeneID 36248) | 2 | -0.2 | 0
CG14325 (GeneID 42123) | 1 | -0.8 | 0.3
CG31407 (GeneID 318716) | 1 | -0.2 | -0.1
CG11269 (GeneID 37527) | 1 | -0.1 | -0.2
Eb1 (GeneID 35584) | 1 | -0.2 | 0.3
Mst89B (GeneID 41972) | 1 | -0.3 | -0.5
Ir56b (GeneID 37250) | 1 | -0.4 | -0.7

5 entries from above, reformatted.
UQCR-C2 (GeneID 39846)
- z-score, replicate 1: 0.8
- z-score, replicate 2: 2.3

heix (GeneID 34961)
- z-score, replicate 1: -0.1
- z-score, replicate 2: 0.4

CG5455 (GeneID 43196)
- z-score, replicate 1: -0.4
- z-score, replicate 2: -0.3

CG15812 (GeneID 38379)
- z-score, replicate 1: -0.4
- z-score, replicate 2: -0.6

SCCRO (GeneID 39685)
- z-score, replicate 1: -0.3
- z-score, replicate 2: 0.5
